The other results are listed elsewhere or left out.
Compound: CC1Cc2ccccc2N1C(=O)C1CCCN(C1)C(=O)CCl (mixture of isomers) [TRIM25 ligand 11 (diastereomer mixture)]
Test: probe-labelled cysteine peptide fold change vs DMSO (competition) (log2 fold change); higher = less target engagement (more negative = stronger competition)
Conditions: THP-1, incubation time: 4 h
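Note: competitive chemoproteomic profiling in live THP-1 cells with an iodoacetamide desthiobiotin (IA-DTB) probe, comparing probe-labelled peptide intensities in compound-treated cells against DMSO-treated controls.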

Sequences of proteins named here, by UniProt entry; tags and fusion partners are left off. A change or cut given only in a name is not applied to a line headed by its entry.
UniProt Q96RR1: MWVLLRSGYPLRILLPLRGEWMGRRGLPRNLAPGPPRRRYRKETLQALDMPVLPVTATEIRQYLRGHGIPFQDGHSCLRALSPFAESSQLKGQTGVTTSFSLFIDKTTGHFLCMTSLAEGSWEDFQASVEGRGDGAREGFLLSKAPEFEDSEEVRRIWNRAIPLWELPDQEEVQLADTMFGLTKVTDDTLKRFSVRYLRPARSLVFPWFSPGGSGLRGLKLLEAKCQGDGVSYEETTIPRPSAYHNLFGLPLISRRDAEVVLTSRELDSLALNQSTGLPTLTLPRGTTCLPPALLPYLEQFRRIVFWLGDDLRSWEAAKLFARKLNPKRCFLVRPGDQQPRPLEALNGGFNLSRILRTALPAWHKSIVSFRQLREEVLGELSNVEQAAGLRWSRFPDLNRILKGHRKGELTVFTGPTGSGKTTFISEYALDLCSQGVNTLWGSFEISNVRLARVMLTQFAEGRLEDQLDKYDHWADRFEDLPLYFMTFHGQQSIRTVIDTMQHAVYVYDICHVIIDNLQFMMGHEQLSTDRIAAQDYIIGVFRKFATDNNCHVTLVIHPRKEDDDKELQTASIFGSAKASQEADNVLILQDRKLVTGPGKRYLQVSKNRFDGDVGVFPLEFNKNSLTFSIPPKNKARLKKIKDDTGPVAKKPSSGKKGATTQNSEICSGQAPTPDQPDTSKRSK
UniProt Q5TAX3: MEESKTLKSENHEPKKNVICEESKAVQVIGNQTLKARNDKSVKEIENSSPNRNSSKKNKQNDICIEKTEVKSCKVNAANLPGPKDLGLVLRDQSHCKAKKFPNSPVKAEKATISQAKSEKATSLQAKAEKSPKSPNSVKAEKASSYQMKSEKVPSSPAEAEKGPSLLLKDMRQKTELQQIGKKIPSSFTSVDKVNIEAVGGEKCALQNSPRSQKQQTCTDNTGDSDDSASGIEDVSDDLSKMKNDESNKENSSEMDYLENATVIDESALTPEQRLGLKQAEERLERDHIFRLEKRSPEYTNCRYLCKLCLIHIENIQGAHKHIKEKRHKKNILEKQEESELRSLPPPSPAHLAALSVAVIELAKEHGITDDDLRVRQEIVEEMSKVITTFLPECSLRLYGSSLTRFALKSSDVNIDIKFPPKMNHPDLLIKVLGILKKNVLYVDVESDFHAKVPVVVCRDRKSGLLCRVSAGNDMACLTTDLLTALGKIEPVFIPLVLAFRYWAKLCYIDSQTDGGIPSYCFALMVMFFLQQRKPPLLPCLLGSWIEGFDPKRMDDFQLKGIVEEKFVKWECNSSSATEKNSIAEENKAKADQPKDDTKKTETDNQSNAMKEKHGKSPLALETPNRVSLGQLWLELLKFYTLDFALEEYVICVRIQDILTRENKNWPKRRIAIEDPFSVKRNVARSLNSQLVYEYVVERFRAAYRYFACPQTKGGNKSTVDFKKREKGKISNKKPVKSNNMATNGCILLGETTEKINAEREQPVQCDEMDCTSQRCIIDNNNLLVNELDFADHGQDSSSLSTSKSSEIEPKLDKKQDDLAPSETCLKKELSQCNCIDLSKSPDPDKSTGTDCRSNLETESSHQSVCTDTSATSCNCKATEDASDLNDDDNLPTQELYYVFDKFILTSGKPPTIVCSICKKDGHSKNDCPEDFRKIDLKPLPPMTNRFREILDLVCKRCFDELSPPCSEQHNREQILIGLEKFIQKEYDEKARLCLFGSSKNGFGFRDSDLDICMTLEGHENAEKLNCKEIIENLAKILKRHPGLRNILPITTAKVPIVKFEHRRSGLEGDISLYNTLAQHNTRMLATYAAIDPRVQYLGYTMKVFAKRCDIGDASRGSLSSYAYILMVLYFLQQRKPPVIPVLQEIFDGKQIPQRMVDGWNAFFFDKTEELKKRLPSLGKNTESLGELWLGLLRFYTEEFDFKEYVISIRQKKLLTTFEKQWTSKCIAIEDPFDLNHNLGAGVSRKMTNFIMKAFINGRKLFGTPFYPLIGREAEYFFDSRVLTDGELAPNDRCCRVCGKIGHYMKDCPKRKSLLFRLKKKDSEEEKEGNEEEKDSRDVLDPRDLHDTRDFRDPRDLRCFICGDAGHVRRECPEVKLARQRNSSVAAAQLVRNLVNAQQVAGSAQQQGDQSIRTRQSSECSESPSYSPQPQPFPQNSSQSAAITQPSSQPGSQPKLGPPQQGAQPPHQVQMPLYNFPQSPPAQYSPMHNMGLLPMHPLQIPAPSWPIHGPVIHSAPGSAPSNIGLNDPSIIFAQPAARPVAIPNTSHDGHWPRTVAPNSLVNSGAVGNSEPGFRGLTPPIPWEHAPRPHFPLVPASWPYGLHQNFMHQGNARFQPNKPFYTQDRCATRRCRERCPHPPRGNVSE
UniProt P30536, whole entry, looked up: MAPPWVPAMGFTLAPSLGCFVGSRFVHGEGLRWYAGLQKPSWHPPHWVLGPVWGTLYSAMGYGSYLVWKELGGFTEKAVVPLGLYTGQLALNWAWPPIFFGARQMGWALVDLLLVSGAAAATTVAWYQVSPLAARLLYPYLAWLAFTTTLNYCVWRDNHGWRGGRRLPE
UniProt P43897: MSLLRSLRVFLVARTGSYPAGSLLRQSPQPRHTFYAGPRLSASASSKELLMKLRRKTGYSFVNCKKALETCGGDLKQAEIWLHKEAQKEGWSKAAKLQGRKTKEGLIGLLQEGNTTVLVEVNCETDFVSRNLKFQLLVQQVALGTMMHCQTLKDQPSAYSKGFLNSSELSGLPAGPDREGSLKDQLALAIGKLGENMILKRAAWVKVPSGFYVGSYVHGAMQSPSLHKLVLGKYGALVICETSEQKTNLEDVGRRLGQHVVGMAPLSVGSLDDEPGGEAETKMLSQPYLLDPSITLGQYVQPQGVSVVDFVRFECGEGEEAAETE
UniProt Q99614: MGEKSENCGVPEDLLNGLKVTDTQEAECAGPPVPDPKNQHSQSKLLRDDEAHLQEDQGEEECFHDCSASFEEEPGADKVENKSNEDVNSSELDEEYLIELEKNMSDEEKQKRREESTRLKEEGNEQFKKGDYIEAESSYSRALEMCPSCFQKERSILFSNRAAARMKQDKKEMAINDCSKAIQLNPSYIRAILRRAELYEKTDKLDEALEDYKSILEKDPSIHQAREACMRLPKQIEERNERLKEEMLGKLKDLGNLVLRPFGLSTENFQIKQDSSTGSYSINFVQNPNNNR
UniProt Q96CW5, whole entry, looked up: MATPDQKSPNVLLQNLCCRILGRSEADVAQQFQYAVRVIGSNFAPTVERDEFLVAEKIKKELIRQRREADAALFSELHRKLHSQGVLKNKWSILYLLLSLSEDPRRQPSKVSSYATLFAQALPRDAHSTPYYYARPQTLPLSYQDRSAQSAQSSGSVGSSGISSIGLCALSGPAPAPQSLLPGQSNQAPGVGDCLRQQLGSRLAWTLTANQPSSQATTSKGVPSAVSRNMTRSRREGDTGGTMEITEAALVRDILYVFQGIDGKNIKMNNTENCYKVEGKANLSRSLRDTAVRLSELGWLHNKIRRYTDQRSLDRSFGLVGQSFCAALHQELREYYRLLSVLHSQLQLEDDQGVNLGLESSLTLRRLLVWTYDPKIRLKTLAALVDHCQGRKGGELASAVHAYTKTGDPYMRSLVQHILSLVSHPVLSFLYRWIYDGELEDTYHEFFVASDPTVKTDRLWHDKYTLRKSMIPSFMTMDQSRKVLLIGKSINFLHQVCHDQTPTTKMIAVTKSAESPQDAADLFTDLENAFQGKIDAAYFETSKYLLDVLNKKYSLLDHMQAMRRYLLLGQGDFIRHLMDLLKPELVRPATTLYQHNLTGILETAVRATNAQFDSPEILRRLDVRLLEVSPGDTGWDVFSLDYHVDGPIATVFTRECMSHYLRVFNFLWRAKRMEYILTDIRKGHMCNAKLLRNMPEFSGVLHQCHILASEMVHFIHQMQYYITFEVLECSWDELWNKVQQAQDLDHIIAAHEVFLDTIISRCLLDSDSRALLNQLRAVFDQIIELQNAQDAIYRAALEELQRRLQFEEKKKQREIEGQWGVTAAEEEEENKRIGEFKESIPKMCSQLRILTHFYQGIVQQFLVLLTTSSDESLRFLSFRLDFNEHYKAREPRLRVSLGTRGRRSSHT
UniProt O94759, whole entry, looked up: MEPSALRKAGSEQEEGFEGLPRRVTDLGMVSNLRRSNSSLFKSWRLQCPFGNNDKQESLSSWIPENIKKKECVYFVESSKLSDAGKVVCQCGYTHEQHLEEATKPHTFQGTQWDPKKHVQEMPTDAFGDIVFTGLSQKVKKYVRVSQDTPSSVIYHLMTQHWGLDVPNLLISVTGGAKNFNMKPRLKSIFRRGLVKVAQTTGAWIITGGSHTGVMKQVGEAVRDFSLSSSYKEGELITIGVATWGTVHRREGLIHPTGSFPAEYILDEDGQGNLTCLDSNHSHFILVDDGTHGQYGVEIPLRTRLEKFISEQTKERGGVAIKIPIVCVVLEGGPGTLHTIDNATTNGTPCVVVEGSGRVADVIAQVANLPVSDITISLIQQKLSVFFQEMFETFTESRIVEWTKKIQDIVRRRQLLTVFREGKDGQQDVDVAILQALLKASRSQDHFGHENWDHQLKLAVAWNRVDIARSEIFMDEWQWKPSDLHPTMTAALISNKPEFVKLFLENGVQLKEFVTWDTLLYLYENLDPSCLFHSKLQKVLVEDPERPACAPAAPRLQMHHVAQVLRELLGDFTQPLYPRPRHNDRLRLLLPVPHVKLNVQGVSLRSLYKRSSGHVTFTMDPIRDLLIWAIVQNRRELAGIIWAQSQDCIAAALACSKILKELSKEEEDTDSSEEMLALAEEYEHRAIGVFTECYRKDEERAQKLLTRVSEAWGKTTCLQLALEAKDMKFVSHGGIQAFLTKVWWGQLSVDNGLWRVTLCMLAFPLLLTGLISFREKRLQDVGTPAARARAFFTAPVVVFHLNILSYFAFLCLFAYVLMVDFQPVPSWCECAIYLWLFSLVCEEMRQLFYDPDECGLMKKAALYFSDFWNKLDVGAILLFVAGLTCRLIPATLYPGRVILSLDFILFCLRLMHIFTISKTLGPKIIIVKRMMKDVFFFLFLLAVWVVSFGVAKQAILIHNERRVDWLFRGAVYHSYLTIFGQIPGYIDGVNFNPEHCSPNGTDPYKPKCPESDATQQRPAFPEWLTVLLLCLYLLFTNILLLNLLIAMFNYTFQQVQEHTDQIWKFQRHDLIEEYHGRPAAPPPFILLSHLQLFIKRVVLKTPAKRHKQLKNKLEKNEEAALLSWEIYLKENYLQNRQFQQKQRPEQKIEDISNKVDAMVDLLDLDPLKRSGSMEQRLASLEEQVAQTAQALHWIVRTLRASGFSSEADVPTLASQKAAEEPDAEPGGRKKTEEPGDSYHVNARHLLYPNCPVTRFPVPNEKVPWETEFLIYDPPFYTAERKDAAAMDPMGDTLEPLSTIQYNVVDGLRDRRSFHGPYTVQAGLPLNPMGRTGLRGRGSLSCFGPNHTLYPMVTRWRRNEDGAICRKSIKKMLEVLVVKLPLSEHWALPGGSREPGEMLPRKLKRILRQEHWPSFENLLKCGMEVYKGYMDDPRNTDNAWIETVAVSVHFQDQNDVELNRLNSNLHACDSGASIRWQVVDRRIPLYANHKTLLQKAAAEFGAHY
UniProt Q96N46: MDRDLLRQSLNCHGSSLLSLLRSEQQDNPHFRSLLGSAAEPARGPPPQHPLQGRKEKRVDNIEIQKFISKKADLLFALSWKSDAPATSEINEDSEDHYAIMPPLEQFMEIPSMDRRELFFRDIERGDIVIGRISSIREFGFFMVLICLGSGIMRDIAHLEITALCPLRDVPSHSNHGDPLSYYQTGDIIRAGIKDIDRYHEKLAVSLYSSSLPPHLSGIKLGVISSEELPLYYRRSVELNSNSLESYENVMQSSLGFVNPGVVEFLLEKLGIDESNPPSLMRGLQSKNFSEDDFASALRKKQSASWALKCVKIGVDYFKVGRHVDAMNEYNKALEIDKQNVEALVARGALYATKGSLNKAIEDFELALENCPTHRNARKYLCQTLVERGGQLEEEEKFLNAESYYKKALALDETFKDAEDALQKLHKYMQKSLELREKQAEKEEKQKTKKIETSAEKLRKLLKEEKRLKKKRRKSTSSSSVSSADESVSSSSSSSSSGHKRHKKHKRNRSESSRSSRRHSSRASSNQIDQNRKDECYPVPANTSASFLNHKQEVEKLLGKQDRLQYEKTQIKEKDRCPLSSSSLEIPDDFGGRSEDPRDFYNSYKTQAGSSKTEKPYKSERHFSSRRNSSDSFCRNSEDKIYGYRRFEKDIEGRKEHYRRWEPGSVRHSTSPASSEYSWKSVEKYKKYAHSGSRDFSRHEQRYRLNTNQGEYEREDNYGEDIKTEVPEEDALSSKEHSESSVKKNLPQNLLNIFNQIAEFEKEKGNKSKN

## TWNK_Q96RR1_330_CFLVRPGDQQPRPLEALNGGFNLSR (UniProt Q96RR1)
10 µM
  probe-labelled cysteine peptide fold change: 0.243
50 µM
  probe-labelled cysteine peptide fold change: -0.124

## TUT4_Q5TAX3_709_YFACPQTK (UniProt Q5TAX3)
10 µM
  probe-labelled cysteine peptide fold change: -0.02
50 µM
  probe-labelled cysteine peptide fold change: 0.0464

## TTF2_Q9UNY4_37_ADTCSFVR (UniProt Q9UNY4)
10 µM
  probe-labelled cysteine peptide fold change: -0.104
50 µM
  probe-labelled cysteine peptide fold change: 0.162

## TRRAP_Q9Y4A5_429_LLLNLVDCIR (UniProt Q9Y4A5)
10 µM
  probe-labelled cysteine peptide fold change: 0.0648
50 µM
  probe-labelled cysteine peptide fold change: 0.0297

## TSPO_P30536_19_APPWVPAMGFTLAPSLGCFVGSR (UniProt P30536)
10 µM
  probe-labelled cysteine peptide fold change: 0.0413
50 µM
  probe-labelled cysteine peptide fold change: 0.016

## TSFM_P43897_315_FECGEGEEAAETE (UniProt P43897)
10 µM
  probe-labelled cysteine peptide fold change: 0.358
50 µM
  probe-labelled cysteine peptide fold change: 0.0116

## TRMT1_Q9NXH9_86_DLTCAVITEFAR (UniProt Q9NXH9)
10 µM
  probe-labelled cysteine peptide fold change: -0.0295
50 µM
  probe-labelled cysteine peptide fold change: -0.12

## TTC28_Q96AY4_726_ALGNLGDIFICK (UniProt Q96AY4)
10 µM
  probe-labelled cysteine peptide fold change: 0.224
50 µM
  probe-labelled cysteine peptide fold change: 0.1

## TTC1_Q99614_146+149_ALEMCPSCFQK (UniProt Q99614)
10 µM
  probe-labelled cysteine peptide fold change: -0.165
50 µM
  probe-labelled cysteine peptide fold change: 0.112

## TTC27_Q6P3X3_299_EGDVLSNCEFTPAPTPQEHLTK (UniProt Q6P3X3)
10 µM
  probe-labelled cysteine peptide fold change: 0.0346
50 µM
  probe-labelled cysteine peptide fold change: -0.306

## TUBGCP3_Q96CW5_18_SPNVLLQNLCCR (UniProt Q96CW5)
10 µM
  probe-labelled cysteine peptide fold change: -0.0673
50 µM
  probe-labelled cysteine peptide fold change: 0.0368

## TRPM2_O94759_1341_GSLSCFGPNHTLYPMVTR (UniProt O94759)
10 µM
  probe-labelled cysteine peptide fold change: -0.00461
50 µM
  probe-labelled cysteine peptide fold change: -0.0356

## TTC37_Q6PGP7_497_VFCYLGHYYR (UniProt Q6PGP7)
10 µM
  probe-labelled cysteine peptide fold change: 0.00325
50 µM
  probe-labelled cysteine peptide fold change: 0.162

## TTC14_Q96N46_577_DRCPLSSSSLEIPDDFGGR (UniProt Q96N46)
10 µM
  probe-labelled cysteine peptide fold change: -0.0233
50 µM
  probe-labelled cysteine peptide fold change: -0.00469
